Source: PubChem BioAssay AID1508597 (Cure First, 2020)
Purpose: 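Survival screen with siRNA in ovarian cancer cells derived from patients, with or without rucaparib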 (primary screen). System: human ovarian carcinoma lines grown from tumours: OCI-P5x (papillary serous) and OCI-C5x (clear cell). Reagent: siRNA pool against human genes, 1.25 pmol siRNA per well. Duration: 72 h or 96 h, depending on the cell culture. Conditions: rucaparib 20 µM (about IC30) or vehicle, present until read-out. Rucaparib or vehicle: Vehicle. Cell line: OCI-P5x (serous). Measured: 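Luminescent ATP-based viability assay read 72 or 96 h after transfection, depending on culture, given as normalised percent viability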. Scale: viability, normalised: higher = more viable cells remaining. Active means: 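a well counts as a hit if its normalised viability is under 80 percent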. Meaning of the calls: active = viability under 80%; inactive = viability 80% or more.
Shown is an unselected part of the about 2,100 reagents, in one setting of the screen. 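Calls flag viability under 80% in either arm, not effects specific to rucaparib; the reference for percent is not stated.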 Unmarked entries are inactive. Some reagents were tested in more than one well and are listed for each. Reagent sequences are not shown. The record does not give: the 100% reference.

Target gene,technical replicate,"viability, normalised (%)"
EIF4A3,1,24.6 (active)
EIF4A3,2,25 (active)
EIF4A3,3,29.8 (active)
RNF2,1,68.1 (active)
RNF2,2,74.2 (active)
RNF2,3,108
PRDM2,1,63.5 (active)
PRDM2,2,27 (active)
PRDM2,3,86.1
HKDC1,1,60.3 (active)
HKDC1,2,58.7 (active)
HKDC1,3,58.9 (active)
MAP2K4,1,81.9
MAP2K4,2,93.2
MAP2K4,3,95.1
DCK,1,91
DCK,1,65.9 (active)
DCK,2,79.7 (active)
DCK,2,90.1
DCK,3,65 (active)
DCK,3,97.3
PRMT7,1,39.4 (active)
PRMT7,2,50.1 (active)
PRMT7,3,77.8 (active)
TTBK1,1,74.7 (active)
TTBK1,2,85.1
TTBK1,3,79.8 (active)
HAUS7,1,94.3
HAUS7,2,75 (active)
HAUS7,3,90
TJP2,1,74 (active)
TJP2,2,70.9 (active)
TJP2,3,85.4
AK7,1,67.8 (active)
AK7,2,58.4 (active)
AK7,3,57.9 (active)
MED24,1,61 (active)
MED24,2,61 (active)
MED24,3,58.2 (active)

Laid out differently: entries from further up
{"Target gene": "DCK", "technical replicate": "3", "viability, normalised (%)": "65 (active)"}
{"Target gene": "DCK", "technical replicate": "3", "viability, normalised (%)": 97.3}
{"Target gene": "PRMT7", "technical replicate": "1", "viability, normalised (%)": "39.4 (active)"}
{"Target gene": "PRMT7", "technical replicate": "2", "viability, normalised (%)": "50.1 (active)"}
{"Target gene": "PRMT7", "technical replicate": "3", "viability, normalised (%)": "77.8 (active)"}
{"Target gene": "TTBK1", "technical replicate": "1", "viability, normalised (%)": "74.7 (active)"}
